The supplement of paper PMC12462457
Structures can show the parent of a compound that is named as a salt. ± gives the standard deviation of the averaged measurements. The list shows a part of the results. Repeats in this data set agree poorly, so a single value says little.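 Cell counts came from imaging DAPI-stained nuclei, excluding as dead any cells lacking phalloidin-stained cytoplasm. Counts per well were normalized to the median vehicle-well count on that plate, and the values were averaged over two replicate plates.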

Tested on: OVCAR8
Assay: cell count relative to DMSO vehicle (fold change); higher = more surviving senescent cells (less killing)
Details: senescence inducer: cisplatin 10 µM 48 h, then 6 d recovery (CP senescent), exposure time 24 h

Structure (SMILES)	cell count (compound dose 1 µM)	cell count (compound dose 5 µM)
Cc1sc2c(c1C)C(c1ccc(Cl)cc1)=N[C@@H](CC(N)=O)c1nnc(C)n1-2	0.55 ± 0.15	0.565 ± 0.091
COC1=C[C@@H]2[C@@H]3Cc4ccc(OC)c(O)c4[C@]2(CCN3C)CC1=O [Sinomenine hydrochloride]	1.11 ± 0.076	1.1 ± 0.19
COC1=C[C@@H]2[C@@H]3Cc4ccc(OC)c(O)c4[C@]2(CCN3C)CC1=O	0.981 ± 0.0028	0.97 ± 0.028
C/C(=C\c1csc(C)n1)[C@@H]1C[C@@H]2O[C@@H]2CCC[C@H](C)[C@H](O)[C@@H](C)C(=O)C(C)(C)[C@@H](O)CC(=O)O1 [Epothilone A]	1.02 ± 0.26	1.05 ± 0.086
CCOC1c2c(ccc3c2OCO3)-c2ccc3cc4c(cc3c2N1C)OCO4 (centres undefined) [Ethoxysanguinarine]	0.084 ± 0.024	0.0945 ± 0.029
C=CC(=O)N[C@H]1C=C(C)c2c(-c3cnc4ccccc4c3)c3c(N)ncnc3n2C1	0.9095 ± 0.0064	0.781 ± 0.032
O=C(c1ccccc1O)c1[nH]c(Cl)c(Cl)c1-n1c(C(=O)c2ccccc2O)cc(Cl)c1Cl [Maritoclax]	1.08 ± 0.12	0.814 ± 0.059
CC(C)[C@]12O[C@H]1[C@@H]1O[C@]13[C@]1(O[C@H]1C[C@H]1C4=C(CC[C@@]13C)C(=O)OC4)[C@@H]2O [Triptolide]	0.503 ± 0.0042	0.475 ± 0.061
CC(C)(C)c1cc(C=C(C#N)C#N)cc(Br)c1O	1.02 ± 0.067	1.03 ± 0.052
CC(C)=CCC[C@](C)(O)[C@H]1CC[C@]2(C)[C@@H]1[C@H](O)C[C@@H]1[C@@]3(C)CC[C@H](O[C@@H]4O[C@H](CO)[C@@H](O)[C@H](O)[C@H]4O)C(C)(C)[C@@H]3CC[C@]12C [Ginsenoside Rh2]	0.953 ± 0.12	0.824 ± 0.0085
COc1cc(C(=O)O[C@H]2[C@@H]3C=CO[C@@H](O[C@@H]4O[C@H](CO)[C@@H](O)[C@H](O)[C@H]4O)[C@@H]3[C@@]3(CO)O[C@@H]23)ccc1O [Picroside II]	0.83 ± 0.09	0.853 ± 0.1
Cn1c(CCCC(=O)O)nc2cc(N(CCCl)CCCl)ccc21 [Bendamustine (hydrochloride)]	0.988 ± 0.075	0.691 ± 0.081
CC(=O)O[C@H]1C[C@]2(O)[C@@H]3CC[C@@H]4C[C@@H](O)CC[C@]4(C)[C@H]3CC[C@]2(C)[C@H]1c1ccc(=O)oc1 [Bufotalin]	0.019 ± 0.0014	0.022 ± 0.0028
CN1Cc2c(ccc3c2OCO3)[C@@H]2[C@H]1c1cc3c(cc1C[C@@H]2O)OCO3 [Chelidonine]	0.908 ± 0.062	0.661 ± 0.067
O=C1C=CC[C@@H]2[C@H]3CCCN4CCC[C@@H](CN12)[C@@H]34 [Sophocarpine]	1.01 ± 0.094	1.08 ± 0.42
O=C(O)C(=O)c1cn(Cc2ccccc2)c2ccc(-c3ccc(OC(F)(F)F)cc3)cc12 [Tiplaxtinin]	1.2 ± 0.12	1.09 ± 0.018
COc1cc2c3cc1Oc1c(OC)c(OC)cc4c1[C@@H](Cc1cccc(c1)Oc1ccc(c(O)c1)C[C@@H]3N(C)CC2)N(C)CC4	1.12 ± 0.057	1.24 ± 0.24
CC[C@@H](C(=O)[C@@H](C)[C@@H](O)[C@H](C)[C@@H]1O[C@@H]([C@@H](CC)C(=O)O)CC[C@@H]1C)[C@H]1O[C@]2(C=C[C@@H](O)[C@]3(CC[C@@](C)([C@H]4CC[C@](O)(CC)[C@H](C)O4)O3)O2)[C@H](C)C[C@@H]1C [Salinomycin]	0.905 ± 0.12	0.917 ± 0.5
CC[C@@H](C(=O)[C@@H](C)[C@@H](O)[C@H](C)[C@@H]1O[C@@H]([C@@H](CC)C(=O)O)CC[C@@H]1C)[C@H]1O[C@]2(C=C[C@@H](O)[C@]3(CC[C@@](C)([C@H]4CC[C@](O)(CC)[C@H](C)O4)O3)O2)[C@H](C)C[C@@H]1C [Salinomycin (sodium salt)]	0.719 ± 0.06	1.03 ± 0.028
OC(Cc1ccncc1)C(Cl)(Cl)Cl (centres undefined)	1.05 ± 0.061	1.18 ± 0.025
S=C=NCc1ccccc1	0.803 ± 0.22	0.955 ± 0.15
C[C@@H]1CC[C@@]2(OC1)O[C@H]1C[C@H]3[C@@H]4CC=C5C[C@@H](O[C@@H]6O[C@H](CO)[C@@H](O[C@@H]7O[C@@H](C)[C@H](O)[C@@H](O)[C@H]7O)[C@H](O)[C@H]6O[C@@H]6O[C@@H](C)[C@H](O)[C@@H](O)[C@H]6O)CC[C@]5(C)[C@H]4CC[C@]3(C)[C@H]1[C@@H]2C [Dioscin]	1.16 ± 0.19	0.216 ± 0.048
Cn1cc(C2=C(c3cn(C4CCN(Cc5ccccn5)CC4)c4ccccc34)C(=O)NC2=O)c2ccccc21	1.07 ± 0.02	1.25 ± 0.12
CC(C)=CCCC(C)(O)C1CCC2(C)C1C(O)CC1C3(C)CCC(OC4OC(CO)C(O)C(O)C4O)C(C)(C)C3CCC12C [20(R)-Ginsenoside Rh2]	1.1 ± 0.085	1.16 ± 0.12
O=C(O)CC[N+](=O)[O-] [3-Nitropropanoic acid]	0.521 ± 0.017	0.48 ± 0.046
O=C(CBr)N1CC([N+](=O)[O-])([N+](=O)[O-])C1	1.03 ± 0.12	0.939 ± 0.025
C[S+]([O-])/C=C/CCN=C=S (centres undefined) [Sulforaphene]	1.17 ± 0.1	0.98 ± 0.15

Record cards (already shown).
COc1cc2c3cc1Oc1c(OC)c(OC)cc4c1[C@@H](Cc1cccc(c1)Oc1ccc(c(O)c1)C[C@@H]3N(C)CC2)N(C)CC4 as listed: cell count (compound dose 1 µM): 1.12 ± 0.057; cell count (compound dose 5 µM): 1.24 ± 0.24
OC(Cc1ccncc1)C(Cl)(Cl)Cl (centres undefined) as listed: cell count (compound dose 1 µM): 1.05 ± 0.061; cell count (compound dose 5 µM): 1.18 ± 0.025
